Record: PubChem BioAssay AID720505 (Drosophila RNAi Screening Center, 2013)

Aim: 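Fly regulators or components of the CRAC channel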 (primary screen)
Cell system: Drosophila S2R+ cells
Reagent: long dsRNA against Drosophila genes
Treatment: thapsigargin (2 µM) in calcium-free buffer to empty internal stores, then 2 mM calcium added back
Measured: 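Fluo-4 signal in 384-well plates read on a FLIPR after thapsigargin (2 µM, calcium-free) store depletion and 2 mM calcium add-back; unnormalised mean endpoint per well; screen run twice, selected wells retested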
Reading the numbers: calcium signal and retest calcium signal: higher = more calcium entry after store depletion
Rule for the call: 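Knock-downs counted as hits when calcium entry dropped relative to STIM1 positive and Rho1 negative controls present on each plate; roughly 1500 genes called, with reductions of differing size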
Calls: active = called as lowering calcium entry; inactive = not called
The screen tested about 20,000 reagents; this is a random part of those that have a named target and a result. Of all reagents, about 2,100 (10%) are marked active. 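Raw plate signals without normalisation; calls rest on control-based scores that were not deposited; replicate 2 separates called from uncalled poorly.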 A plus sign joins genes that one reagent is predicted to hit. Reagent sequences are not shown. The record does not give: the amount of reagent, the time to read-out.

target gene	dsRNA	calcium signal, replicate 1	calcium signal, replicate 2	retest calcium signal, replicate 1	retest calcium signal, replicate 2	call
CG31139	DRSC21393	131	84.5			inactive
CG6424	DRSC05936	133	117			inactive
Cog3	DRSC00585	98.5	185			inactive
CG4377	DRSC04467	107	82.6			inactive
CG15147	DRSC02447	127	159	140	120	inactive
CG15147	DRSC02448	122	108			inactive
Lcp65Ac	DRSC11210	123	117			inactive
Mulk	DRSC02658	94.3	124			inactive
Pop5	DRSC10074	79.6	132			inactive
nero	DRSC15432	100	133			inactive
twi	DRSC04720	116	172			inactive
twi	DRSC23185	107	138			inactive
RpS28a	DRSC15064	185	153			inactive
CG13023	DRSC09903	97.2	202			inactive
sim	DRSC17054	85.8	152			inactive
CG2162	DRSC08557	91.3	109			inactive
CG13579	DRSC04215	187	186			inactive
CG3630	DRSC18499	120	120			inactive
CG18324	DRSC06721	267	167			inactive
Ipk1	DRSC04235	161	73.7			inactive
Ipk1	DRSC04236	172	80.5			inactive
Ipk1	DRSC04237	163	81.6			inactive
pch2	DRSC14368	149	154			inactive
CG14071	DRSC02374	123	154			inactive
CG9795	DRSC12336	134	119			inactive
ArgRS-m	DRSC14186	91.9	184	7525	132	inactive
Dh44-R2	DRSC06141	122	215			inactive
Dh44-R2	DRSC06281	135	208			inactive
thoc5	DRSC04327	120	94.6			inactive
cyst	DRSC02023	108	125			inactive
CG43338	DRSC22055	78.1	197			inactive
sw	DRSC20388	74.2	66.9			active
CG2540	DRSC19856	100	118			inactive

Copied from the entries so far, 7 entries:
target gene	dsRNA	calcium signal, replicate 1	calcium signal, replicate 2	retest calcium signal, replicate 1	retest calcium signal, replicate 2	call
CG31139	DRSC21393	131	84.5			inactive
CG6424	DRSC05936	133	117			inactive
Cog3	DRSC00585	98.5	185			inactive
CG4377	DRSC04467	107	82.6			inactive
CG15147	DRSC02447	127	159	140	120	inactive
CG15147	DRSC02448	122	108			inactive
Lcp65Ac	DRSC11210	123	117			inactive

Further entries follow:
target gene	dsRNA	calcium signal, replicate 1	calcium signal, replicate 2	retest calcium signal, replicate 1	retest calcium signal, replicate 2	call
CG17224	DRSC00489	79.7	116			inactive
RN-tre	DRSC07521	107	198			inactive
CG43691	DRSC06650	146	203			inactive
CG43691	DRSC06651	112	121			inactive
CG15767	DRSC18073	68.3	202			active
Alp10	DRSC09749	92.5	101			inactive
qvr	DRSC05280	90.1	122			inactive
mAcon2	DRSC15629	88.2	115			inactive
CG8243	DRSC07122	80.4	95.6			inactive
CG8243	DRSC22608	168	224			inactive
CG13896	DRSC08366	95.4	146			inactive
STUB1	DRSC03282	149	133			inactive
Ccdc114	DRSC15025	114	196			inactive
CG6763	DRSC16110	193	98			inactive
ND-SGDH	DRSC11102	37.9	81.9			active
Schip1	DRSC02851	155	184			inactive
Inx7	DRSC18784	233	145			inactive
asRNA:Eig63F-2 + Eip63F-1	DRSC21446	180	84.2			inactive
CG8925	DRSC16455	151	175			inactive
CG8925	DRSC16456	155	227			inactive
CG8925	DRSC16457	160	181			inactive
CG33468	DRSC22940	104	183			inactive
GstE6	DRSC06676	168	184			inactive
